Assay results as given in PMC7819943, “Rice protein-binding microarrays: a tool to detect cis-acting elements near promoter regions in rice”.
The list shows a part of the results.

Target: T1, OsSMF1 (Oryza sativa, UniProt Q6ZLB0 1-436)
T1 sequence: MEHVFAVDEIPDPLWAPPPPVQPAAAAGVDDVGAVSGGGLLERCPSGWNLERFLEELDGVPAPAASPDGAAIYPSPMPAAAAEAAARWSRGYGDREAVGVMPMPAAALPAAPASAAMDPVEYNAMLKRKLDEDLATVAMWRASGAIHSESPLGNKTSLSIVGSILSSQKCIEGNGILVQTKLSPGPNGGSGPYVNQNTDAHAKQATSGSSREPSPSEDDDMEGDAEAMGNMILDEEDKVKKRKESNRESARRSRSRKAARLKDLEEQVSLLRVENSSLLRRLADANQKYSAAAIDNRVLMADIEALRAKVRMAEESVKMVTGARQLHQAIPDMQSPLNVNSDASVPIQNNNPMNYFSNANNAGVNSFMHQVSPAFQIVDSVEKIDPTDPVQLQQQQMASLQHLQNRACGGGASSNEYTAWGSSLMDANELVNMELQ
Assay: protein-binding microarray (RPBM); PBS, 2% BSA, 51.3 ng/ul salmon testes DNA, 50 uM zinc acetate, 200 nM TF, 25 C, 1 h; high values mean tight binding
Details: protein: recombinant; tags: N-terminal polyhistidine and DsRed monomer fusion (pET32a); chain copies: 2; label: CyDye5-dUTP incorporated in the synthesized complementary strand; 3' TTTTT single-stranded linker to array surface; dsDNA, one strand shown
Method in brief: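 Binding signal here means per-feature fluorescence intensity in arbitrary units. The values were read on an Axon 4000B scanner after a custom Agilent array, double-stranded by primer extension with Cy5-dUTP, was incubated with 200 nM protein at 25 °C for 1 h in PBS with 2% BSA, salmon testes DNA and 50 µM zinc acetate, then washed. The proteins were transcription factors with an N-terminal polyhistidine tag and DsRed, expressed in E. coli BL21-CodonPlus and purified on Ni–NTA.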

Question: For “TTAAATGTACCTAATATATTATGTCAGACATATGGATTTCCGGAGTCACCTAGTGCAG”, which binding signal is on record?
Answer: 3460 fluorescence intensity (a.u.)

Question: How did the binding signal turn out when “CCACTGCCTAGTCGTCACATGTGGCCGAACCAGCCTTCGTCGGAGTCACCTAGTGCAG” was run?
Answer: 5370 fluorescence intensity (a.u.)

Question: Which binding signal does the source give for “CGGGCGGCGATCTCCATCGCAGCGGAGGGGAGGGGATCCTCGGAGTCACCTAGTGCAG” here?
Answer: 3320 fluorescence intensity (a.u.)

Question: How did the binding signal turn out when “AGAAATTCCTGCGTCTGCGTGCTTGTAGATTTGTAATTTGCGGAGTCACCTAGTGCAG” was run?
Answer: 3280 fluorescence intensity (a.u.)

Question: Which binding signal does the source give for “TATATCTATATGCCATATCATCTGTCTATCCTTTGTAAAGCGGAGTCACCTAGTGCAG” here?
Answer: 3630 fluorescence intensity (a.u.)

Question: For “ACACACCCCACCATAGTTTACGAAGCCGGATCACGTGGAACGGAGTCACCTAGTGCAG”, which binding signal is on record?
Answer: 3240 fluorescence intensity (a.u.)

Question: How did the binding signal turn out when “GCCGGCGGCGGTGGCTCCGGGGATGTGATCTGGCAGAGCTCGGAGTCACCTAGTGCAG” was run?
Answer: 33100 fluorescence intensity (a.u.)

Question: How did the binding signal turn out when “ATCACCGTCACTTTTACTCTGTTAGATACCGTTAATTTTGCGGAGTCACCTAGTGCAG” was run?
Answer: 4250 fluorescence intensity (a.u.)

Question: For “GGAGGCTAAGCGGCGGGCCCCACCAGCGCCGCCTGCCTATCGGAGTCACCTAGTGCAG”, which binding signal is on record?
Answer: 16100 fluorescence intensity (a.u.)

Question: “AACTTAATTGACGACTCTTCGGGATTAGGATCGTGGACTACGGAGTCACCTAGTGCAG” was tested. Which binding signal did it give?
Answer: 9720 fluorescence intensity (a.u.)

Question: With “GTATGTTGACCCTAGCCACGTGCATTAGTAGCATGAATGTCGGAGTCACCTAGTGCAG” as the sequence, how does the binding signal read?
Answer: 3880 fluorescence intensity (a.u.)

Question: “ATTCCATGCATTTGACCTAGTTAGTTCTACACCTTACATCCGGAGTCACCTAGTGCAG” was tested. Which binding signal did it give?
Answer: 4830 fluorescence intensity (a.u.)

Question: Which binding signal does the source give for “CCTCGCCTCGCCACGCCACGCCACGCCGCCGAAATTTCATCGGAGTCACCTAGTGCAG” here?
Answer: 7280 fluorescence intensity (a.u.)

Question: Which binding signal does the source give for “GGCGCGCGCGCACTGGGGCAAGGGCGTGGCGACGGCGGCGCGGAGTCACCTAGTGCAG” here?
Answer: 3710 fluorescence intensity (a.u.)

Question: With “TGGTAGTCATTTGAACGTGTTACATGTGTAGGTTTGGGCGCGGAGTCACCTAGTGCAG” as the sequence, how does the binding signal read?
Answer: 3580 fluorescence intensity (a.u.)

Question: “TTTATTTTGCATTATAAGACTTATATGTGAGTCACACTTACGGAGTCACCTAGTGCAG” was tested. Which binding signal did it give?
Answer: 9210 fluorescence intensity (a.u.)

Question: “TTTTGAAGATTTAATTGCAATGAATTTAATGGTGTAATCGCGGAGTCACCTAGTGCAG” was tested. Which binding signal did it give?
Answer: 19400 fluorescence intensity (a.u.)

Question: With “AGTAATTTTCTAGTTTCTCACCATGGTTCACTAGTTCATCCGGAGTCACCTAGTGCAG” as the sequence, how does the binding signal read?
Answer: 26900 fluorescence intensity (a.u.)

Question: “AATAATAATCTAATGAAGATAAATAATCACAGTATATCATCGGAGTCACCTAGTGCAG” was tested. Which binding signal did it give?
Answer: 26500 fluorescence intensity (a.u.)

Question: For “CAAGTCCAAGAGCACCATAAGCTAGTGACACATAGAGCCCCGGAGTCACCTAGTGCAG”, which binding signal is on record?
Answer: 4140 fluorescence intensity (a.u.)

Question: For “GTCTTCTTCCTTCTTTCGTTGGTGCAGTCATTTCAGAGTACGGAGTCACCTAGTGCAG”, which binding signal is on record?
Answer: 3380 fluorescence intensity (a.u.)

Question: With “CAATTTATGATGGCCCATTAGTCACCCAACTTAGGTACAGCGGAGTCACCTAGTGCAG” as the sequence, how does the binding signal read?
Answer: 4290 fluorescence intensity (a.u.)

Question: Which binding signal does the source give for “AGGTTGATTAGAAAAGGATGACCTGACTAGCACCCTCATTCGGAGTCACCTAGTGCAG” here?
Answer: 4700 fluorescence intensity (a.u.)

Question: How did the binding signal turn out when “CTGCCACGCGGCCACGGCGGCGGCGGTCTCCAGGTGGAAGCGGAGTCACCTAGTGCAG” was run?
Answer: 4050 fluorescence intensity (a.u.)

Question: How did the binding signal turn out when “AGATAGCTAAGCTAAGCTAAGCTAGCCTCACTCCATGCTCCGGAGTCACCTAGTGCAG” was run?
Answer: 23000 fluorescence intensity (a.u.)

Question: For “GGCGGCACAGGTCGCCGTCGTCGCCACCGACGCGGCGTCGCGGAGTCACCTAGTGCAG”, which binding signal is on record?
Answer: 3730 fluorescence intensity (a.u.)

Question: With “GCTGCATACGCAGGTGGTGTGATGACACGCAAACATCATGCGGAGTCACCTAGTGCAG” as the sequence, how does the binding signal read?
Answer: 4740 fluorescence intensity (a.u.)

Question: Which binding signal does the source give for “AAACGATACTGTCTGGTATCCCGATCCTGACAACCTTGTCCGGAGTCACCTAGTGCAG” here?
Answer: 3180 fluorescence intensity (a.u.)

Question: Which binding signal does the source give for “CTGTGATTCGGCTGTTCCCGCGTCATGTATATATACGCCACGGAGTCACCTAGTGCAG” here?
Answer: 6220 fluorescence intensity (a.u.)

Question: How did the binding signal turn out when “AATACTTCCAGCGACCTAAACGCGGATCGGCTCCTTCGAGCGGAGTCACCTAGTGCAG” was run?
Answer: 25600 fluorescence intensity (a.u.)

Question: For “AATCATCACATCATCACCGTCATCTTCTCTAGCATAGCAACGGAGTCACCTAGTGCAG”, which binding signal is on record?
Answer: 4630 fluorescence intensity (a.u.)

Question: “GATGGAAGACTGACTATGCATTGCGCCACAGAAGTCATGCCGGAGTCACCTAGTGCAG” was tested. Which binding signal did it give?
Answer: 3850 fluorescence intensity (a.u.)

Question: For “AGCCGCCAAAATTAGTACACGCAAGCTTCGATAACGTTTTCGGAGTCACCTAGTGCAG”, which binding signal is on record?
Answer: 5480 fluorescence intensity (a.u.)

Question: “GCTATCGCGCGCGTGGAGTGCGACGTGCATGCGCATCACCCGGAGTCACCTAGTGCAG” was tested. Which binding signal did it give?
Answer: 3150 fluorescence intensity (a.u.)

Question: For “ATGCGATTGATGATGTGGCAAATGCATCTCTAATGAATAACGGAGTCACCTAGTGCAG”, which binding signal is on record?
Answer: 10100 fluorescence intensity (a.u.)

Question: “CCATCTCGCTCGCTCACTCATGTCACTCGTCAGCCACTTCCGGAGTCACCTAGTGCAG” was tested. Which binding signal did it give?
Answer: 4150 fluorescence intensity (a.u.)

Question: For “GGCCCAGCTAAGCTAGCGCCTATTAGGGCTTGCCCCGGCTCGGAGTCACCTAGTGCAG”, which binding signal is on record?
Answer: 31100 fluorescence intensity (a.u.)

Question: How did the binding signal turn out when “CGGCGGTTGCATCCGTGCCCATGACTCCACCGACGCTCCCCGGAGTCACCTAGTGCAG” was run?
Answer: 4050 fluorescence intensity (a.u.)

Question: For “GATAAAGGTCTCTATTTGCATGACATATATCGTTACTATACGGAGTCACCTAGTGCAG”, which binding signal is on record?
Answer: 3570 fluorescence intensity (a.u.)

Question: Which binding signal does the source give for “AACATATTGCTTAGCGATTTGGAATGCGTGCGTATCAAAACGGAGTCACCTAGTGCAG” here?
Answer: 3590 fluorescence intensity (a.u.)

Question: “CCGCCGCCGCCGCCGCATAAGCCCGCTTCTTCGCCGGGAGCGGAGTCACCTAGTGCAG” was tested. Which binding signal did it give?
Answer: 3280 fluorescence intensity (a.u.)

Question: “CACCGTCCAAACCGCTGAGGGACCTCATCTGCACTGGTTTCGGAGTCACCTAGTGCAG” was tested. Which binding signal did it give?
Answer: 21800 fluorescence intensity (a.u.)
